{
  "source": "paper PMC4264851",
  "binders": {"B1": {"name": "Utp5 (protein, UniProt Q04177 1-643)", "chain": "MDSPVLQSAYDPSGQYLCYVTVALDKQRVGVQPTQRATSSGVDTVWNENFLYLEDSKLKVTCLKWVNLASSDTVAIILGMNNGEIWLYSVLANEVTYKFTTGNSYEIKDIDLMGNQLWCIDSSDAFYQFDLLQFKLLQHFRINNCVQLNKLTIVPAGDSVAQLLVASHSISLIDIEEKKVVMTFPGHVSPVSTLQVITNEFFISGAEGDRFLNVYDIHSGMTKCVLVAESDIKELSHSGQADSIAVTTEDGSLEIFVDPLVSSSTKKRGNKSKKSSKKIQIVSKDGRKVPIYNAFINKDLLNVSWLQNATMPYFKNLQWREIPNEYTVEISLNWNNKNKSADRDLHGKDLASATNYVEGNARVTSGDNFKHVDDAIKSWERELTSLEQEQAKPPQANELLTETFGDKLESSTVARISGKKTNLKGSNLKTATTTGTVTVILSQALQSNDHSLLETVLNNRDERVIRDTIFRLKPALAVILLERLAERIARQTHRQGPLNVWVKWCLIIHGGYLVSIPNLMSTLSSLHSTLKRRSDLLPRLLALDARLDCTINKFKTLNYEAGDIHSSEPVVEEDEDDVEYNEELDDAGLIEDGEESYGSEEEEEGDSDNEEEQKHTSSKQDGRLETEQSDGEEEAGYSDVEME"}, "B2": {"name": "Utp8 (protein, UniProt P53276 1-713)", "chain": "MPSLSQPFRLATLPKIASLSNFSLQADYVQVADGTFNESTNNITLGISGSSISQYIINPTPKLTFDYPIPSTNIITACNAEKGQANIDGNIEASTDDEANNEKTINTQKKRNVEIWAFGLMVNKGNYTLNVITKALEDTTDTSNDHLSESDIDNKAYTGSDEFLSQYKIKAKAKVMSIKIDTKNSLVIAILQNGLIEIFDFKLTLLHSFDISYDNLKYAKWFTENGTEYVFVLCPLQDDKVCYKLLELTDCGSGESSPIKELSSTIIEGFSFENSKLCYQFGKLYKLNQGKIYIYSLPHCQLQQVIEFPMVDKLSPGDDLISFQPVSVNRVLLTVNNVIYLLDLLHCSTLSQRELTHVKTFQLLKSAVINSEKSHNSKTIAIGISTKNGPNPTSSLEIINIDVGTNTLKDSLGKSFQVGNNDSSVILKPLFDDKDINDKRVKCNDVSGDSSVPVLHCNEVIEKLSALQDNDITSFDDIFFKELKIKEEHYTEKDRYISDPGFLNKVLDLIFGKFSGNDYPKTLTFLLTHPLFPLSRTRNLLSLLRDQPRLFKQAIVTCPNLPLNELLEELFSIRNRELLLDISFRILQDFTRDSIKQEMKKLSKLDVQNFIEFITSGGEDSSPECFNPSQSTQLFQLLSLVLDSIGLFSLEGALLENLTLYIDKQVEIAERNTELWNLIDTKGFQHGFASSTFDNGTSQKRALPTYTMEYLDI"}, "B3": {"name": "Utp9 (protein, UniProt P38882 1-575)", "chain": "MGSSLDLVASFSHDSTRFAFQASVAQKNNVDIYPLNETKDYVVNSSLVSHIDYETNDMKVSDVIFFGWCSDLIDTQSSNIKRKLDEDEGTGESSEQRCENFFVNGFPDGRIVVYSSNGKDIVNIIKNKKEILGADTDESDIWILDSDKVVKKLQYNNSKPLKTFTLVDGKDDEIVHFQILHQNGTLLVCIITKQMVYIVDPSKRRPSTKYSFEISDAVACEFSSDGKYLLIANNEELIAYDLKEDSKLIQSWPVQVKTLKTLDDLIMALTTDGKINNYKIGEADKVCSIVVNEDLEIIDFTPINSKQQVLISWLNVNEPNFESISLKEIETQGYITINKNEKNNADEADQKKLEEKEEEAQPEVQHEKKETETKINKKVSKSDQVEIANILSSHLEANSTEILDDLMSGSWTEPEIKKFILTKINTVDHLSKIFLTISKSITQNPWNEENLLPLWLKWLLTLKSGELNSIKDKHTKKNCKHLKSALRSSEEILPVLLGIQGRLEMLRRQAKLREDLAQLSMQEGEDDEIEVIEHSNVISNPLQDQASPVEKLEPDSIVYANGESDEFVDASEYKD"}, "B4": {"name": "Utp4-TAP (protein, UniProt Q06679 1-776)", "chain": "MSSSLLSVLKEKSRSLKIRNKPVKMTSQERMIVHRCRFVDFTPATITSLAFSHKSNINKLTPSDLRLAIGRSNGNIEIWNPRNNWFQEMVIEGGKDRSIEGLCWSNVNGESLRLFSIGGSTVVTEWDLATGLPLRNYDCNSGVIWSISINDSQDKLSVGCDNGTVVLIDISGGPGVLEHDTILMRQEARVLTLAWKKDDFVIGGCSDGRIRIWSAQKNDENMGRLLHTMKVDKAKKESTLVWSVIYLPRTDQIASGDSTGSIKFWDFQFATLNQSFKAHDADVLCLTTDTDNNYVFSAGVDRKIFQFSQNTNKSQKNNRWVNSSNRLLHGNDIRAICAYQSKGADFLVSGGVEKTLVINSLTSFSNGNYRKMPTVEPYSKNVLVNKEQRLVVSWSESTVKIWTMGTDSSTEQNYKLVCKLTLKDDQNISTCSLSPDGQVLVVGRPSTTKVFHLQPVGNKLKVTKLDNDLLLRTSTKLVKFIDNSKIVICSCEDDVFIVDLESEEDEKPQEVELLEVTSTKSSIKVPYINRINHLEVDQNIAVISRGCGVVDILDLKARISKPLARLNNFITAVHINTSRKSVVVITADNKIYEFNMNLNSEAENEDSESVLTQWSKNNTDNLPKEWKTLKENCVGIFSDIENSSRLWFWGATWISRIDFDVDFPINKRRKQKKRTHEGLTITDESNFMNDEEDDEDDDIDMEISENLNVLLNQGNKIKSTDVQRNEESSGHFFFTDKYKPLLFVDLISSNELAIIERNPLTFHSKQKAFIQPKLVF"}, "B5": {"name": "Utp4 (protein, UniProt Q06679 1-776)", "chain": "B4 chain"}, "B6": {"name": "Nan1-HA (protein, UniProt Q02931 1-896)", "chain": "MTQSLGIEQYKLSVVSGGKPALNNLSSVTGNKNIARLSQDQRNYIIPFNNQIKVYSVETRQCVKTLKFANNSLLSGIFLQEEENNESIVKILLGDITVPQQEDAHLITVFTNNGHVIVLNYKGKLVESPKHFKISLADEKLANVFHSEGNYRILTTFKDPSQKAHNSLQSYRLYALTFDDAKKQFEVAHQAEWHNVILSNISSNGKLLAHMCKDVSTKDHEHKSISVVSLFDDSVNLSFPLGSILSSQTQSLSYNTRYVSSMAIDNMGQQLAVGFASGVISIVSLADLQIRLLKWHIDSVLSLSFSHDGSYLLSGGWEKVMSLWQLETNSQQFLPRLNGIIIDCQVLGPQGNYYSLILQMTENNSNSDYQFLLLNASDLTSKLSINGPLPVFNSTIKHIQQPISAMNTKNSNSITSLNHSKKKQSRKLIKSRRQDFTTNVEINPINKNLYFPHISAVQIFDFYKNEQVNYQYLTSGVNNSMGKVRFELNLQDPIITDLKFTKDGQWMITYEIEYPPNDLLSSKDLTHILKFWTKNDNETNWNLKTKVINPHGISVPITKILPSPRSVNNSQGCLTADNNGGLKFWSFDSHESNWCLKKISLPNFNHFSNSVSLAWSQDGSLIFHGFDDKLQILDFDTFKKFESLENTKTVSEFTLDSEIQTVKLINDTNLIVATRTTLNAINLLRGQVINSFDLYPFVNGVYKNGHMDRLITCDERTGNIALVINQQLTDLDGVPTINYKSRIIIFDSDLSTKLGNFTHHEYISWIGWNYDTDFIFLDIESTLGVVGTTVNTQLSDEVNNEGILDGLVSNTITTSASNSDIFAEQLHKLSSRGKKSDTRDKNTNDNDEDEEDIALEFINGEKKDKLVNMNSFTSMFDNIQNVQMDTFFDRVMKVLT"}},
  "note": "No constants are given. Whether binding was seen depends on the method and setting. Some binding calls cover weakened binding; strength is not graded here. Sequences can lack the tags named with a protein.",
  "data": [
    {"target": "T1, Utp15-FLAG (S. cerevisiae) (UniProt Q04305)", "T1 sequence": "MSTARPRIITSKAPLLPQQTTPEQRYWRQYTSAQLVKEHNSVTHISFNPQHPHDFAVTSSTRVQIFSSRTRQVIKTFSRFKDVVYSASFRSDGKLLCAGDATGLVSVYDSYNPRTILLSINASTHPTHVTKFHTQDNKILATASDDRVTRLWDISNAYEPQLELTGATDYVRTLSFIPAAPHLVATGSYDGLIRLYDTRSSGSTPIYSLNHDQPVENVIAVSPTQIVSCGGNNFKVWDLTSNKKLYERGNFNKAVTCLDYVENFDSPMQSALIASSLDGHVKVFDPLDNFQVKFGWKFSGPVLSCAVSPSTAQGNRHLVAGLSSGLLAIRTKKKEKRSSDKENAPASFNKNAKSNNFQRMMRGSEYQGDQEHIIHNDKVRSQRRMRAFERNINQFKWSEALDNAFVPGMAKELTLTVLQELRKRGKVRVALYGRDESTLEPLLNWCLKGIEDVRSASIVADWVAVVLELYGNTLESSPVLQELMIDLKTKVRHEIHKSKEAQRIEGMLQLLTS", "assay": "SEC; bacmid K2123; eluate of the two-step purification (Utp4-TAP, then Utp15-FLAG) fractionated on Superose 6; fractions by SDS-PAGE, Coomassie", "values": [
      {"binder": "B1", "binding": "binds"},
      {"binder": "B2", "binding": "binds"},
      {"binder": "B3", "binding": "binds"},
      {"binder": "B4", "binding": "binds"}
    ]},
    {"target": "T1, Utp15-FLAG (S. cerevisiae)", "assay": "SEC; bacmid K2000; anti-FLAG eluate (Utp15-FLAG) fractionated on Superose 6 PC 3.2/30 in buffer A100, 4°C; fractions by SDS-PAGE, MS and Western blot (anti-HA, anti-FLAG)", "values": [
      {"binder": "B5", "binding": "binds"},
      {"binder": "B1", "binding": "binds"},
      {"binder": "B2", "binding": "binds"},
      {"binder": "B3", "binding": "binds"},
      {"binder": "B6", "binding": "binds weakly"}
    ]}
  ]
}
